# Measured values taken from patent US20090324635 (published 2009).
# Assay: peptide synthesis
# Conditions: purification step, HPLC (A %), diacetate
substance,measurement,value
"1-((4R,5S)-5-(2-Aminoethylamino)-N2-(10,12-dimethyl-1-oxotetradecyl)-4-hydroxy-L-ornithine)-2-L-serine-5-((3R)-3-hydroxy-L-ornithine)-pneumocandin B0",final HPLC purity,94.0 A %
